{"source": "paper PMC12351161", "key": {"MBP-OsERF120 [1]": {"system": "MBP-OsERF120", "assay": "EMSA", "details": "LightShift Chemiluminescent EMSA Kit (Thermo 20148); binding buffer, pH and temperature not stated; annealing in 100 mM NaCl, 1 mM EDTA, 10 mM Tris-HCl pH 7.5; recombinant protein; protein details: N-terminal MBP (pMAL-C4X); label: 5' biotin"}, "MBP-OsERF120 [2]": {"system": "MBP-OsERF120", "assay": "competition with a labelled probe", "details": "unlabeled competitor at 20x, 40x, 80x, signal gradually decreased; LightShift Chemiluminescent EMSA Kit (Thermo 20148); binding buffer, pH and temperature not stated; annealing in 100 mM NaCl, 1 mM EDTA, 10 mM Tris-HCl pH 7.5; recombinant protein; protein details: N-terminal MBP (pMAL-C4X)"}}, "note": "Construct, isoform or probe ends are uncertain for at least one entry. For some assays here: A weaker result is weaker than the reference pair of the same experiment. For some assays here: At least one verdict rests on a figure or table, not on a statement of the authors."}
{"sequence": "TGATTAATTAGACCGACCTTAATTAGTAG (double strand) [OsMST6 promoter probe]", "values": [{"measurement": "binding result", "setting": "MBP-OsERF120 [1]", "result": "binds"}]}
{"sequence": "TGATTAATTAGAACGACCTTAATTAGTAG (double strand) [mutant probe 1]", "values": [{"measurement": "binding result", "setting": "MBP-OsERF120 [1]", "result": "binds more weakly"}]}
{"sequence": "TGATTAATTAGAAAGAACTTAATTAGTAG (double strand) [mutant probe 3]", "values": [{"measurement": "binding result", "setting": "MBP-OsERF120 [1]", "result": "binds more weakly"}]}
{"sequence": "TGATTAATTAGACCGACCTTAATTAGTAG (double strand) [unlabeled competitor probe]", "values": [{"measurement": "binding result", "setting": "MBP-OsERF120 [2]", "result": "binds"}]}
{"sequence": "TGATTAATTAGAAAGACCTTAATTAGTAG (double strand) [mutant probe 2]", "values": [{"measurement": "binding result", "setting": "MBP-OsERF120 [1]", "result": "binds more weakly"}]}
